Primary screen of a compound library

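Viability assay of Plasmodium falciparum sporozoites; the read-out is not stated. The concentration is filed as 10 mM, unlikely as a test dose, so the dose is not known. The record gives no direction; compounds that gave an IC50 in retests scored well above the rest, so higher reads as lower viability. Strong results were mostly tested again. About 34,000 compounds were tested under these conditions; 0.84% (about 280) showed 50% or more at least once.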

Each number is a percent effect as filed. The record does not define 0% and 100%; most values in the screen are far below 50% and negative numbers occur (in some assays of this library far below -100). Compounds were drawn at random from those tested, without regard to their results. Two or more numbers in one place are separate tests of the same structure; such repeats can differ widely.

* COCC1CC2(CCN(Cc3cccc(C#N)c3)CC2)CN1C(C)C.O=C(O)C(F)(F)F.O=C(O)C(F)(F)F (configuration not stated) : -6.813%
* Cc1cc(CS(=O)(=O)CC(=O)N2c3ccccc3CC2C)no1 (configuration not stated) : -7.214%
* COc1cccc(Cn2c(C)c(C)oc2=O)c1OC : -6.559%
* Cc1ccc(-c2nc(CNC3CCc4ncnn4C3)co2)cc1 (configuration not stated) : -6.701%
* COCCN1CCC(CNC(=O)C2(c3cccc(C)c3)CC2)C1 (configuration not stated) : 10.6%
* Cc1nnc2n1CCN(CCOc1ccccc1)C2 : -26.14% & -25.56% & -5.728%
* CN(Cc1cccc(O)c1)CC1CCCN(CCc2ccc(Cl)cc2)C1 (configuration not stated) : -4.383%
* Cc1nc(C(C)C)sc1C(=O)NCCNc1ncccn1 : 4.937%
* Cc1ccn2c(=O)cc(CSCC(=O)Nc3nnc(C(C)C)s3)nc2c1 : 10.3%
* CCc1nc(CN2CCCN(C(=O)c3cc(C)on3)CC2)cs1 : -3.727%
* CCc1nc(CN2CCCN(C(=O)c3ccnc(C)n3)CC2)cs1 : -0.8043%
* Cc1cc(C)n(CC2CCCN2Cc2c(C)noc2C)n1 (configuration not stated) : 2.4%
* Cc1ncncc1C(=O)N1CCOC(C)(C(=O)NC2CCCC2)C1 (configuration not stated) : 12.89%
* Cc1cc(C)n(CC(=O)N2CCC(Nc3cccnn3)CC2)n1 : -1.502%
* Cc1ccccc1C(=O)N1CCOC2(CNCCOC2)C1 (configuration not stated) : 14.71%
* CC(C(=O)NCc1ccnc(Oc2ccc(F)cc2)c1)n1cncn1 (configuration not stated) : -0.1176%
* CN(Cc1ccncc1)C(=O)[C@H]1CSCN1C(=O)OC(C)(C)C : 3.989%
* CN1CCCC1c1cccc(Cc2ccc(F)cc2)n1 (configuration not stated) : 12.52%
* Cc1ccc(CN(CCCn2ccnc2)Cc2c[nH]cn2)s1.O=C(O)CC(O)(CC(=O)O)C(=O)O : 0.5924%
* CCCS(=O)(=O)N1CCC2(CC1)CCn1c(-c3cnn(C)c3)cnc12.O=C(O)C(F)(F)F : -4.973%
* CN(C(=O)c1ccccn1)c1nc2c(s1)CCc1c-2cnn1C : 50.28% & 36.85% & 11.13%
* Cc1csc(Nc2nccnc2C2CCCN2CC(N)=O)n1 (configuration not stated) : 4.686%
* O=C1NCCCCC1Sc1nnc(C2CC2)n1C1CC1 (configuration not stated) : -9.327%
* c1ncn(CC2CCCCN2Cc2csc(C3CCCC3)n2)n1 (configuration not stated) : -7.522%
* COc1cc(I)c(Cl)cc1C(=O)N(C)CC(=O)NC(C)(C)C : -7.902%
* Cc1occc1C(=O)NC1CCN(C(=O)Nc2cccnc2)CC1 : 10.12%
* O=C(O)C(F)(F)F.[H][C@@]12CN(C(=O)COC)C[C@]1([H])C(=O)N(Cc1csc(C)n1)C2 : 15.99%
* CC(C)c1nn(C)c(N(C)C)c1CNCCC(=O)NC1CCCC1 : -2.037%
* Cc1cnn(CC2CCCN2Cc2noc(-c3ccccc3)n2)c1 (configuration not stated) : 12.99%
* CC(Cn1ccnc1)NC(=O)C1(c2ccc(F)cc2)CCCC1 (configuration not stated) : 23.02%
* CCn1c(-c2ccccc2)nn(CC(=O)NCCc2ccc(C)s2)c1=O : -14.39%
* O=C(c1cccc(-n2cnnc2)c1)N1C[C@@H](O)[C@H](N2CCOCC2)C1 : -2.182%
* CN(C)C(=O)c1ccc(C2CCCNC2)nc1.Cl.Cl (configuration not stated) : 5.516%
* CC(C)N1CCC(NC(=O)NC2CCOc3ccc(Br)cc32)CC1 (configuration not stated) : 3.395%
* CCN(CC)C(=O)c1cc(C2CCCN2C)ccn1.O=CO (configuration not stated) : -6.754%
* O=C(NCCc1cc(F)ccc1F)NC(CO)c1ccccc1 (configuration not stated) : 2.941%
* CCc1ccc(C(=O)NCc2ccnc(N3CCN(C)CC3)c2)o1 : 8.293%
* O=C(O)C(F)(F)F.O=C(O)C(F)(F)F.[H][C@@]12C[C@@H](C(=O)NC(C)C)C[C@@]1([H])N(Cc1cccnc1)CCO2 : 0.1082%
* Cc1nc2c(c(=O)[nH]1)CN(C(=O)CCC1CCCN(C)C1)C2 (configuration not stated) : 1.471%
* CCC(CN1CCOCC1)n1cncc1-c1ccc2c(c1)CCN2CC.Cl (configuration not stated) : 6.07%
* CC(=O)N1CCCC1CCc1ccnc(-c2cncnc2)c1 (configuration not stated) : -0.06416%
* Cn1cc(N2CC3(CCN(Cc4ccsc4)CC3)OCC2=O)cn1.O=C(O)C(F)(F)F : -1.217%
* O=C(O)C(F)(F)F.[H][C@@]12COC[C@]1(COc1ccccn1)CN(S(=O)(=O)N(C)C)C2 : 14.33%
* O=C(c1cccs1)N1CCC(O)(CN2CCc3ccccc3C2)C1 (configuration not stated) : -6.517%
* O=C(O)[C@@H]1CN(C(=O)NCC2CCCCC2)C[C@H]1c1ccccn1 : 4.035%
* Fc1ccc(-c2noc(C3COCCO3)n2)cc1F (configuration not stated) : -12.98%
* Cc1cnn(CC2CCCN2Cc2noc(C(C)(C)C)n2)c1 (configuration not stated) : -1.346%
* CN(Cc1cccc(F)c1)C(=O)CN1CCCC1CCc1ccccc1 (configuration not stated) : 2.835%
* CN1CCN(C2COC3(CCN(Cc4ccc(F)cc4)CC3)C2)CC1.O=C(O)C(F)(F)F.O=C(O)C(F)(F)F.O=C(O)C(F)(F)F (configuration not stated) : 1.632%
* Nc1cc2c(nn1)CCN(C(=O)C1CCc3ccccc31)C2 (configuration not stated) : 10.28%

6 of the entries, repeated:

| Compound | Percent Effect |
|---|---|
| `CN1CCCC1c1cccc(Cc2ccc(F)cc2)n1` (configuration not stated) | 12.52% |
| `CC(C)N1CCC(NC(=O)NC2CCOc3ccc(Br)cc32)CC1` (configuration not stated) | 3.395% |
| `O=C(O)C(F)(F)F.O=C(O)C(F)(F)F.[H][C@@]12C[C@@H](C(=O)NC(C)C)C[C@@]1([H])N(Cc1cccnc1)CCO2` | 0.1082% |
| `Cc1cc(C)n(CC(=O)N2CCC(Nc3cccnn3)CC2)n1` | -1.502% |
| `COc1cc(I)c(Cl)cc1C(=O)N(C)CC(=O)NC(C)(C)C` | -7.902% |
| `CCN(CC)C(=O)c1cc(C2CCCN2C)ccn1.O=CO` (configuration not stated) | -6.754% |

The values are deposited in ChEMBL (CHEMBL3988442, “University of Dundee, Small-Polar-MMV Screening Library” (2021)).